Test: Performance as polyester curing accelerator
Details: 0.2 phr accelerator, 2 phr Butanox M 60 initiator, 25° C.

cobalt 2-ethylhexanoate [Cobalt Octoate]
PEAK TEMP: 145 °C

From patent publication US10954333B2, “Metal-bearing urethanized polymer soluble in a low-volatile organic compound solvent” (EGE KIMYA SANAYI VE TICARET A. S., priority 2015, dated 2021)
